Measurements as given in the supplement of paper PMC12823440, “Inhibitors supercharge kinase turnover through native proteolytic circuits” (Nature, 2025).
This is one part of the list. The calls rarely recur for the same compound in another form.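 Kinases, fused to nanoluciferase, were expressed in K562 cells; luminescence was measured every 4 h from 2 to 18 h as percent of control (DMSO = 100%, positive control = 0%). A time point is decreased if signal falls significantly (2 sigma). Hits were called by the authors by a rule that is not shown; the count of time points alone does not decide it.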

By UniProt entry, the sequences of proteins in these tests, tags left out. Where a name states a change or a piece, a line headed by the entry shows the natural chain unless it says otherwise.
UniProt Q15131: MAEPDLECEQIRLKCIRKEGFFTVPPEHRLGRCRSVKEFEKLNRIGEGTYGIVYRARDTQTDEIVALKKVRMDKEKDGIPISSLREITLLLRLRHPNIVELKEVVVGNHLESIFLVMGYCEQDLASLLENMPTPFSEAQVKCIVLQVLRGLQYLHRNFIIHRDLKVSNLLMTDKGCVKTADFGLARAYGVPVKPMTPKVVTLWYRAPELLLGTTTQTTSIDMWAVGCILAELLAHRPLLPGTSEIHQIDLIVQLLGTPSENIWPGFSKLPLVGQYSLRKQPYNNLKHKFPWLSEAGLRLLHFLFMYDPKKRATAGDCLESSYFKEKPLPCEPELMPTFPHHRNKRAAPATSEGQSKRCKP

Molecular target: CDK10 (UniProt Q15131)
Assay: kinase-Nluc reporter destabilization hit call (1 = scored as downregulated) (binary); higher = compound decreases kinase abundance
Conditions: K562; 2-18 h

kinase-Nluc reporter destabilization hit call, inactive:
CC(C)CCN1c2nc(Nc3cc(F)c(O)c(F)c3)ncc2N(C)C(=O)C1C (configuration not stated) (2.5 µM) 0
CC(C)=CC[C@@H](O)C1=CC(=O)c2c(O)ccc(O)c2C1=O [Shikonin] (10 µM) 0
CCC(=O)Nc1cccc(Oc2nc(Nc3ccc(N4CCN(C)CC4)cc3OC)ncc2Cl)c1 (10 µM) 0
CC(C)=CCC/C(C)=C/CC/C(C)=C/C=C/C(C)=C/C(=O)O [Peretinoin] (10 µM) 0
COc1ccc2c(Oc3ccc4c(C(=O)Nc5ccccc5N)cccc4c3)ccnc2c1 [Chiauranib] (10 µM) 0
Cc1nn(C)cc1-c1nc2c(N3CCN(Cc4ccc(Cl)cc4)CC3)c(Cl)cnc2[nH]1 (10 µM) 0
CNC(=O)c1cc2c(Oc3ccc(NC(=O)C4(C(=O)Nc5ccc(F)cc5)CC4)cc3)ccnc2cc1OC (2.5 µM) 0
O=C(Nc1cccnc1)c1cc(-c2ccnc(F)c2)ccc1OCc1ccccc1 (10 µM) 0
CN(C)c1ccc(-c2nc3ncc(Cl)c(N4CCN(CC(=O)Nc5nccs5)CC4)c3[nH]2)cc1 (2 µM) 0
Cc1cc(C(=O)NC(C)(C)C)cc(C#Cc2ccc3c4c(oc3c2)C(C)(C)c2cc(NS(C)(=O)=O)ccc2C4=O)n1 (10 µM) 0
O=C(O)c1cc(N(Cc2ccccc2O)Cc2cc(O)ccc2O)ccc1O [Lavendustin A] (10 µM) 0
C[C@@H](Nc1ncnc2[nH]c(-c3ccc(O)cc3)cc12)c1ccccc1 (2.5 µM) 0

An excerpt taken from the entries so far, for reference:
kinase-Nluc reporter destabilization hit call, inactive:
CCC(=O)Nc1cccc(Oc2nc(Nc3ccc(N4CCN(C)CC4)cc3OC)ncc2Cl)c1 (10 µM) 0
CC(C)=CCC/C(C)=C/CC/C(C)=C/C=C/C(C)=C/C(=O)O [Peretinoin] (10 µM) 0
